We go through two molecules from publication PMC4315436.

One experiment concerns the target T1, PduU (UniProt P0A1D1).
T1 sequence: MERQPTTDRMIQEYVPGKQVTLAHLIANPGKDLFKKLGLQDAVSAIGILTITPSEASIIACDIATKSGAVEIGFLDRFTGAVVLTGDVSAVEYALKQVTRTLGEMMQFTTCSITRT
As to the kind of experiment: two-hybrid; BacterioMatch II bacterial two-hybrid; second reporter gene aadA, streptomycin resistance of co-transformed E. coli.

For another experiment, the target named is T2, PduV (UniProt Q9XDM6).
T2 sequence: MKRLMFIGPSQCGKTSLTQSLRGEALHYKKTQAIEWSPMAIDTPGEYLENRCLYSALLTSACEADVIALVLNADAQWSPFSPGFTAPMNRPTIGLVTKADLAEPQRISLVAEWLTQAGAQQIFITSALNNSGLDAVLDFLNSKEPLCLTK
As to the kind of experiment: two-hybrid; BacterioMatch II bacterial two-hybrid in E. coli reporter cells; bait in pBT as λcI fusion, prey in pTRG as RNAPα fusion; 30 ng each of bait and prey vector; HIS3 reporter, cfu on selective screening medium with 3-AT; three repeats, mean ± 1 SD.

These are yes or no findings as the source states them, for the method shown. Some entries that bind do so weakly or less than the wild type.

B1: PduV (protein, UniProt Q9XDM6 1-150)
chain: MKRLMFIGPSQCGKTSLTQSLRGEALHYKKTQAIEWSPMAIDTPGEYLENRCLYSALLTSACEADVIALVLNADAQWSPFSPGFTAPMNRPTIGLVTKADLAEPQRISLVAEWLTQAGAQQIFITSALNNSGLDAVLDFLNSKEPLCLTK
On to B1, for which the binding result with PduU is recorded as “binds”.

B2: PduU (protein, UniProt P0A1D1 1-116)
chain: MERQPTTDRMIQEYVPGKQVTLAHLIANPGKDLFKKLGLQDAVSAIGILTITPSEASIIACDIATKSGAVEIGFLDRFTGAVVLTGDVSAVEYALKQVTRTLGEMMQFTTCSITRT
Consider B2, for which the binding result in the experiment with PduV was “binds”.
